# Among all 190,000 compounds or so, about 110 (0.058%) were called active. Inconclusive results, whose numbers are uncertain, are shown with a selection of clear calls.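 How the source made its calls: active means fluorescent GTP binding to Rab7 beads changed by at least 20 points from the 100% baseline, either direction, mostly lower; inconclusive means compound itself probably fluorescent, or too few beads counted; inactive means the rest.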
# Tested on: Rab7 GTPase wild type (dog), Bodipy-FL-GTP binding
# Experiment: wildtype dog Rab7 nucleotide binding alteration – biochemical, multiplex bead flow cytometry, primary screen (AID 758);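 further: median green fluorescence of bound Bodipy-FL-GTP per Rab7 bead population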
# Settings: GST-Rab7 beads, fluorescent GTP binding, at 10 µM, actives lie on both sides
row,SMILES,GTP binding activity (percent of control)
1,O=C1NC(=O)N(CCNc2ncc(C(F)(F)F)cc2Cl)C(=O)C1Cc1ccc(Cl)cc1 (stereo not given),inconclusive: 93%
2,CSc1nnc([C@@H](N)Cc2c[nH]c3ccccc23)o1,inconclusive: 103%
3,OC1CCCCC1N1CCC(c2ccccc2)CC1 (stereo not given),inactive: 101%
4,O=C(NC(C(Cl)Cl)N1CCOCC1)c1ccccc1 (stereo not given),inactive: 97%
5,O=C1NC(=O)C(=Cc2cc(Cl)ccc2OCc2ccc(C(=O)O)cc2)C(=O)N1,inconclusive: 98%
6,CC[n+]1c(SC)ccc2cc(OC)ccc21,inactive: 102%
7,CCCCCCN=C(CC)c1c(O)n(CCCC)c(=O)[nH]c1=O,inconclusive: 101%
8,O=C(c1cccc2ccccc12)C1CCCN(C2CCC2)C1 (stereo not given),inactive: 94%
9,Cc1cc(Br)c(NC(=O)CN2CC=C(c3ccccc3)CC2)c(Br)c1,inconclusive: 95%
10,Cn1c(O)c(C(c2ccccn2)c2c(O)n(C)c(=S)[nH]c2=O)c(=O)[nH]c1=S,inactive: 98%
11,COc1ccc(NC(=O)c2cn(CCC#N)nc2-c2ccc([N+](=O)[O-])cc2)cc1,inconclusive: 87%
12,Cc1ccc(-n2c(O)c(/C=N/c3ncc(Br)cc3Br)c(=O)[nH]c2=O)cc1,inactive: 94%
13,Cn1c(O)c(C(=N)COc2cccc(Cl)c2)c(=O)n(C)c1=O,inactive: 100%
14,OC(CCNCCc1c[nH]c2ccccc12)C(F)(F)F (stereo not given),inactive: 95%
15,Cc1ccc(NC(=O)c2snnc2C)cc1Cl,inconclusive: 92%
16,Cc1cc(NC(=O)CCl)no1,inconclusive: 97%
17,CC(C)[C@H]1C(=O)O[C@H](C(C)C)C(=O)N(C)[C@@H](C(C)C)C(=O)O[C@H](C(C)C)C(=O)N(C)[C@@H](C(C)C)C(=O)O[C@H](C(C)C)C(=O)N1C,inconclusive: 95%
18,CCN(CC)c1ccc(/C=N/c2sc3c(c2C#N)C2CCN3CC2)c(O)c1,inconclusive: 117%
19,COc1cccc(C(=O)C2CCCN(Cc3cccc4c3OCO4)C2)c1 (stereo not given),inactive: 98%
20,CCOC(=O)C(=CNc1ccc(C(O)(C(=O)OCC)C(F)(F)F)cc1C)C(=O)OCC (stereo not given),inactive: 94%

# 3 entries already listed, ordered by length of the SMILES, high to low:
row,SMILES,GTP binding activity (percent of control)
17,CC(C)[C@H]1C(=O)O[C@H](C(C)C)C(=O)N(C)[C@@H](C(C)C)C(=O)O[C@H](C(C)C)C(=O)N(C)[C@@H](C(C)C)C(=O)O[C@H](C(C)C)C(=O)N1C,inconclusive: 95%
14,OC(CCNCCc1c[nH]c2ccccc12)C(F)(F)F (stereo not given),inactive: 95%
4,O=C(NC(C(Cl)Cl)N1CCOCC1)c1ccccc1 (stereo not given),inactive: 97%

# Source: PubChem BioAssay AID758 (NMMLSC, 2007)
